These are yes or no findings as the source states them, for the method shown. For part of these data: Binding seen in cells or lysates may run through a third protein. Some entries that bind do so weakly or less than the wild type. Tags and fused reporters may be left off the sequences shown. Blank lines part the entries; values can stand above or below the molecule they belong to.
Key:
[1] = target: T1, GST-εRACK (human εRACK expressed as a GST fusion protein) (human) (UniProt P35606); assay: pull-down on immobilized GST-εRACK with and without phospholipid activators, Western blot
T1 sequence (looked up): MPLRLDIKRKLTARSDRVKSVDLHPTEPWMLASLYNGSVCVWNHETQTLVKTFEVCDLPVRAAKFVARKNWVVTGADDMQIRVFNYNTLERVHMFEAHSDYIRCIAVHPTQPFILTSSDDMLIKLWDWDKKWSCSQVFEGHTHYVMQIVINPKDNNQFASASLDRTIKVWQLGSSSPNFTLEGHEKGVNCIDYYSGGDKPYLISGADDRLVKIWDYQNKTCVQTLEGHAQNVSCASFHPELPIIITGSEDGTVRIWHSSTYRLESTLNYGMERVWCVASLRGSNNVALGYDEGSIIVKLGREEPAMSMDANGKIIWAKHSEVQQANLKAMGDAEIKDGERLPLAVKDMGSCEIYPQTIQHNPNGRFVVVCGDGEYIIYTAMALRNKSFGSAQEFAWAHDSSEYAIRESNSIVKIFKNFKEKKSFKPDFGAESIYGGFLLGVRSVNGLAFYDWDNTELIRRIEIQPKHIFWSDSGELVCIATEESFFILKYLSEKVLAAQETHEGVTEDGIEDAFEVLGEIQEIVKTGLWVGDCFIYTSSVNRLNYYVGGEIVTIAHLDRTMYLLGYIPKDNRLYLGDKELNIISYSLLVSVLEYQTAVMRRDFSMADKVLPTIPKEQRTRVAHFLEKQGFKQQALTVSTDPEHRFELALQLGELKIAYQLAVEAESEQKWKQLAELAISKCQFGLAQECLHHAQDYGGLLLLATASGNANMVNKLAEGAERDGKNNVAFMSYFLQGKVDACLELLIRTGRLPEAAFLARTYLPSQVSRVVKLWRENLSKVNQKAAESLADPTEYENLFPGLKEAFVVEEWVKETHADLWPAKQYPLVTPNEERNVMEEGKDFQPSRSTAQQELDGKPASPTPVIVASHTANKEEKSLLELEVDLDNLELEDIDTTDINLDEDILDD

[2] = target: T1, GST-εRACK (human εRACK expressed as a GST fusion protein) (human); assay: pull-down on immobilized GST-εRACK, Western blot (discussion of Example 5)

binding [1]: binds
Molecule: εPKC Wt (human εPKC expressed in insect cells) (from UniProt Q02156 1-737) (enzyme)

binding [2]: binds | binding [1]: binds
B1: D(86)A εPKC mutant (enzyme, human, UniProt Q02156 1-737, looked up)
chain: MVVFNGLLKIKICEAVSLKPTAWSLRHAVGPRPATFLLDPYIALNVDDSRIGQTATKQKTNSPAWHDEFVTDVCNGRKIELAVFHAAPIGYDDFVANCTIQFEELLQNGSRHFEDWIDLEPEGRVYVIIDLSGSSGEAPKDNEERVFRERMRPRKRQGAVRRRVHQVNGHKFMATYLRQPTYCSHCRDFIWGVIGKQGYQCQVCTCVVHKRCHELIITKCAGLKKQETPDQVGSQRFSVNMPHKFGIHNYKVPTFCDHCGSLLWGLLRQGLQCKVCKMNVHRRCETNVAPNCGVDARGIAKVLADLGVTPDKITNSGQRRKKLIAGAESPQPASGGSPSEEDRSKSAPTSPCDQEIKELENNIRKALSFDNRGEEHRAASSPDGQLMSPGENGEVRQGQAKRLGLDEFNFIKVLGKGSFGKVMLAELKGKDEVYAVKVLKKDVILQDDDVDCTMTEKRILALARKHPYLTQLYCCFQTKDRLFFVMEYVNGGDLMFQIQRSRKFDEPRSRFYAAEVTSALMFLHQHGVIYRDLKLDNILLDAEGHCKLADFGMCKEGILNGVTTTTFCGTPDYIAPEILQELEYGPSVDWWALGVLMYEMMAGQPPFEADNEDDLFESILHDDVLYPVWLSKEAVSILKAFMTKNPHKRLGCVASQNGEDAIKQHPFFKEIDWVLLEQKKIKPPFKPRIKTKRDVNNFDQDFTREEPVLTLVDEAIVKQINQEEFKGFSYFGEDLMP
notes: Used as the soluble fraction of a Hi5 insect cell lysate containing 100 ng εPKC protein; also called D(86)A ΨεRACK mutant; A mutant
